Results taken from publication PMC10434240.

Amino acid sequences for entries named in this document (tags omitted). A change or cut given only in a name is not applied to a line headed by its entry.
UniProt P90623: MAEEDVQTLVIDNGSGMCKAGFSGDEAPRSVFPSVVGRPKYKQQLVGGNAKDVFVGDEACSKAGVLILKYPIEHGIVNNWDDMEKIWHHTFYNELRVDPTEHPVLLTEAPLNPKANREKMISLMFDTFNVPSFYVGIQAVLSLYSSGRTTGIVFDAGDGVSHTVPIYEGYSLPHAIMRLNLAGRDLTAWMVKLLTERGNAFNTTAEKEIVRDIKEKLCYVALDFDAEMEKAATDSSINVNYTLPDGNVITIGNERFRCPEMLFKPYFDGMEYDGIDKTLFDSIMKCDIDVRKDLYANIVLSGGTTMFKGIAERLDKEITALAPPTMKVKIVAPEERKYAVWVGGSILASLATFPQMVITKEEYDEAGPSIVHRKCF
UniProt A2EGW8: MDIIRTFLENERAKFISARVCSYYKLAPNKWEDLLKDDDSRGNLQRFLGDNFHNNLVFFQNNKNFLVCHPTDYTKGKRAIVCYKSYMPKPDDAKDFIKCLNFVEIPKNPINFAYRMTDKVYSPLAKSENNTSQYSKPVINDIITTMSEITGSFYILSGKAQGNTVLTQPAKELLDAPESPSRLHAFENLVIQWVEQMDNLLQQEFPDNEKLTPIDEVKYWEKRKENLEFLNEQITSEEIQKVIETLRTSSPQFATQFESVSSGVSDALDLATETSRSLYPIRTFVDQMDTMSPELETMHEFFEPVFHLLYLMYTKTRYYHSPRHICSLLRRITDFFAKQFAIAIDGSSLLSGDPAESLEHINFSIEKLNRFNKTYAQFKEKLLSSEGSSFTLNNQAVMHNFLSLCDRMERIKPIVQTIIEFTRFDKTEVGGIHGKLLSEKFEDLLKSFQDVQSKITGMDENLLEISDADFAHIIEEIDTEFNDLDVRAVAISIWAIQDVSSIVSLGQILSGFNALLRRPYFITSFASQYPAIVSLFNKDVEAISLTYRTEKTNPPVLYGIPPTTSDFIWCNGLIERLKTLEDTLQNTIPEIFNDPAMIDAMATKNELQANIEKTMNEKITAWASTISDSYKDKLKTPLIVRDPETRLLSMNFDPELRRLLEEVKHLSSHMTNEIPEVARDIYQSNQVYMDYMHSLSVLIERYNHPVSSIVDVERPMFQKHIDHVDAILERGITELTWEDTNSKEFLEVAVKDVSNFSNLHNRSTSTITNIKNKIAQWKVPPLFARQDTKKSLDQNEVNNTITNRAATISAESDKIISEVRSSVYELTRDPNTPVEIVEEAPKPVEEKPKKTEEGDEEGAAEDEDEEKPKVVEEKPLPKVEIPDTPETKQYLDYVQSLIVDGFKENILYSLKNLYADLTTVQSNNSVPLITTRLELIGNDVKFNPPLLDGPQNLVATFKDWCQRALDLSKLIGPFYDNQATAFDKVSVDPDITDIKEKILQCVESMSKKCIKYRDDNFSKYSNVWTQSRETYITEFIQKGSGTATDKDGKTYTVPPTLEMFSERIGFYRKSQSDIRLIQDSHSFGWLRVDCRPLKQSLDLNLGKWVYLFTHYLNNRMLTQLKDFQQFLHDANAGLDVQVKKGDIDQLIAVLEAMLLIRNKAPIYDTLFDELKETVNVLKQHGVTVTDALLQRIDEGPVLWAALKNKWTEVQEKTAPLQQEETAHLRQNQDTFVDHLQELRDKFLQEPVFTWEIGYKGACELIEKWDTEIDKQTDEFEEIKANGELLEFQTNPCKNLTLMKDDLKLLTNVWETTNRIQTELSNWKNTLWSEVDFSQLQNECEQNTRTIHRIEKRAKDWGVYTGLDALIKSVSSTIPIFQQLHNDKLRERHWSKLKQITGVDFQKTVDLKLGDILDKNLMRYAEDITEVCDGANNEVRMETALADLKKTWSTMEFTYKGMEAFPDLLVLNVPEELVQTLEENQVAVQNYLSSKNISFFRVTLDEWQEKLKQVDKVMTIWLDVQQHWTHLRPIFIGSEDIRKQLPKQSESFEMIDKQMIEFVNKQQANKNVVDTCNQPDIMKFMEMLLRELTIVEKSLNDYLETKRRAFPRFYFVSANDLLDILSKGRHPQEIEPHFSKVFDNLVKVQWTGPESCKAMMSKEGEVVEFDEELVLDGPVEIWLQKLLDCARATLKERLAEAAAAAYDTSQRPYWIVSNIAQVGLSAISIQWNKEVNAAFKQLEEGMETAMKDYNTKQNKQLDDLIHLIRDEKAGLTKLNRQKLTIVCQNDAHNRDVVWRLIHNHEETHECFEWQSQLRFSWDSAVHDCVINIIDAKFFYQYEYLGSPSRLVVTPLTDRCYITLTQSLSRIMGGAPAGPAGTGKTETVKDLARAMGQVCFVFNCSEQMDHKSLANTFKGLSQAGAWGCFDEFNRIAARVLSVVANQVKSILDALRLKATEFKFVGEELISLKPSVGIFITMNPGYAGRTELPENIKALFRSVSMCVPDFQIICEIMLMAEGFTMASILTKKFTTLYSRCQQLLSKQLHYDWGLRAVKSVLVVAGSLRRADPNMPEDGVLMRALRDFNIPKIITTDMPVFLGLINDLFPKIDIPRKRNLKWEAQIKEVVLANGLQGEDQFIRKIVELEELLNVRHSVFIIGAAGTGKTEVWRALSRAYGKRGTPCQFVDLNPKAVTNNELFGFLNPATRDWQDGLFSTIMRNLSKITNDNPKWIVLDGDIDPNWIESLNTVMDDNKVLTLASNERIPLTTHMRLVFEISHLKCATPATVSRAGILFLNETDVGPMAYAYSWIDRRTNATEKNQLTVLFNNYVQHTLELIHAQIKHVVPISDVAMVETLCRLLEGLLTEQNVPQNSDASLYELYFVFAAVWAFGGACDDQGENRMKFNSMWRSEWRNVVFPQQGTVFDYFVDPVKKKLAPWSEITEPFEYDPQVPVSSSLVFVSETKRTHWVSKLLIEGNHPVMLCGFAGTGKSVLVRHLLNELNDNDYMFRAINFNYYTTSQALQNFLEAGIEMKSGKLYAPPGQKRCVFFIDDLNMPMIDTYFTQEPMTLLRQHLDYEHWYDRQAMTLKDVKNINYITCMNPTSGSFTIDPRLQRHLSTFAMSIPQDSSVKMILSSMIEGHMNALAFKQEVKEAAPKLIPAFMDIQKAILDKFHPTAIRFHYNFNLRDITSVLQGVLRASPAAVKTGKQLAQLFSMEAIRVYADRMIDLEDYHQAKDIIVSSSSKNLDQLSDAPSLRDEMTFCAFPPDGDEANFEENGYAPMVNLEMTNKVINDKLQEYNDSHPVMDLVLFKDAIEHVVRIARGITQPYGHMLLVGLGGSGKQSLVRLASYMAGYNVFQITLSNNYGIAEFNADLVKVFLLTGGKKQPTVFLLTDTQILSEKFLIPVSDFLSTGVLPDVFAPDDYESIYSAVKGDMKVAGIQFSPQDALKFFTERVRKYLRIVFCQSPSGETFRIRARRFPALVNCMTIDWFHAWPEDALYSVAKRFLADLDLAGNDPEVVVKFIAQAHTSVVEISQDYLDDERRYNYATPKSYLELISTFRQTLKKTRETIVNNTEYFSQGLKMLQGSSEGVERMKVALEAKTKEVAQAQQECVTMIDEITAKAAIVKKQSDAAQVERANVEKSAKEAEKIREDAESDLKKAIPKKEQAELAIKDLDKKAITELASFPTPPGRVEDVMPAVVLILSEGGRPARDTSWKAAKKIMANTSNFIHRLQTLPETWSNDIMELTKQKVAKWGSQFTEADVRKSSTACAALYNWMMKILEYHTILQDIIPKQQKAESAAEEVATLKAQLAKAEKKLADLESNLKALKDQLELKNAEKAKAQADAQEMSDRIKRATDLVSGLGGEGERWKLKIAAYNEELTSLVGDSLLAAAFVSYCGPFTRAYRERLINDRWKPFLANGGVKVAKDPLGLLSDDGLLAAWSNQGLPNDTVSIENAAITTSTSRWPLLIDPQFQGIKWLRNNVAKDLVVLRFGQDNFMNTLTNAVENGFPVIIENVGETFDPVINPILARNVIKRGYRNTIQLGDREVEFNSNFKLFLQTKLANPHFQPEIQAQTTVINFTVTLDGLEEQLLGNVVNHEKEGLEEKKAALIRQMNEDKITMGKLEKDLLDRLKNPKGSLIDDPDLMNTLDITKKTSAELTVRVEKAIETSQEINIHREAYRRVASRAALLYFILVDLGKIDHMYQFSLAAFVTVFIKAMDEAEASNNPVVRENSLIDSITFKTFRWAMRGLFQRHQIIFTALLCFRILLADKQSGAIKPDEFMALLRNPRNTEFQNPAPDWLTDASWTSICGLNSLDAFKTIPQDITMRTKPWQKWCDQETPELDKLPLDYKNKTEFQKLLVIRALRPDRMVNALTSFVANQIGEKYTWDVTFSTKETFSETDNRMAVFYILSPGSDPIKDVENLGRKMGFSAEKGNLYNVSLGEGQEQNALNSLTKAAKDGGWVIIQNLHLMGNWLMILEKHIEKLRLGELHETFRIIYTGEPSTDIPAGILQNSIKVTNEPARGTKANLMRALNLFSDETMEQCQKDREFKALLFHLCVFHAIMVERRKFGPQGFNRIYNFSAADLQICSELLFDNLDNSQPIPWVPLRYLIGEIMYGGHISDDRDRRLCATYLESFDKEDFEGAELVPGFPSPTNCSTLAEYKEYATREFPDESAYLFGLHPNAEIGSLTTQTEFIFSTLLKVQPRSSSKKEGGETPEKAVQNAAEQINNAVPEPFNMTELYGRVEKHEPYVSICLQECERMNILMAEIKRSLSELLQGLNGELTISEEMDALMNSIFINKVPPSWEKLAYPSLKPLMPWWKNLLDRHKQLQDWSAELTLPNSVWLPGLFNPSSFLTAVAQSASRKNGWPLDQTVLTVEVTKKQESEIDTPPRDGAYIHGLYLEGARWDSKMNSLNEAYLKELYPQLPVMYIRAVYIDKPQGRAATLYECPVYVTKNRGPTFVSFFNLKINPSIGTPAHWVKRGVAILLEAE
UniProt Q27088: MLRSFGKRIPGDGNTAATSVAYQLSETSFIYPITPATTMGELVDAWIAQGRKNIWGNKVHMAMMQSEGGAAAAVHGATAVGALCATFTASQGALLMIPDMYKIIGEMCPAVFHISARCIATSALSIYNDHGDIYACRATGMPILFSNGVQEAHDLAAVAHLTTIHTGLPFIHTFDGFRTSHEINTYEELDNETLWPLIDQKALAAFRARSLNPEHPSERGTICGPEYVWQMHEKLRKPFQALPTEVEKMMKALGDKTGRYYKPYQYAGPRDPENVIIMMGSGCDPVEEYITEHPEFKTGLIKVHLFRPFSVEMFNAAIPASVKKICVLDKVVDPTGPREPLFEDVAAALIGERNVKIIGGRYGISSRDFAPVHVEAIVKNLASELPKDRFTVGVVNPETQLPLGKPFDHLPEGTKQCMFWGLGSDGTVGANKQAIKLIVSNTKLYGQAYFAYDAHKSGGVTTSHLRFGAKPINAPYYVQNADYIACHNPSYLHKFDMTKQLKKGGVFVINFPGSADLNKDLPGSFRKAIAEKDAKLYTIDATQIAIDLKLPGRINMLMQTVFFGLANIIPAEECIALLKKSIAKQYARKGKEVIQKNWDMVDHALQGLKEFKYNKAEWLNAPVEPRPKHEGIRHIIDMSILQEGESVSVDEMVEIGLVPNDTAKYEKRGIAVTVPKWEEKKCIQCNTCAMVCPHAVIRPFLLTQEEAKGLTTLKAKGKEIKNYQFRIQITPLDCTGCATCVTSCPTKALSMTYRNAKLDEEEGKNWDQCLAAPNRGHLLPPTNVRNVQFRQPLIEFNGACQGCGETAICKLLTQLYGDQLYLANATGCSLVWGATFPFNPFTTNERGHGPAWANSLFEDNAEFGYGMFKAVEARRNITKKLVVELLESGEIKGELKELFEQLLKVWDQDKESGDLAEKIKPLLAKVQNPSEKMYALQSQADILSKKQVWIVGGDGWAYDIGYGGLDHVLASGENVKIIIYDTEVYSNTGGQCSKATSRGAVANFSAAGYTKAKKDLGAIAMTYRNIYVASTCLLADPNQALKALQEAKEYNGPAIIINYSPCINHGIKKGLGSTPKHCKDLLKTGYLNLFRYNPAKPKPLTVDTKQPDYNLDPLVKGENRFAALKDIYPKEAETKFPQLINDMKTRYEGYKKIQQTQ
UniProt A2ES57: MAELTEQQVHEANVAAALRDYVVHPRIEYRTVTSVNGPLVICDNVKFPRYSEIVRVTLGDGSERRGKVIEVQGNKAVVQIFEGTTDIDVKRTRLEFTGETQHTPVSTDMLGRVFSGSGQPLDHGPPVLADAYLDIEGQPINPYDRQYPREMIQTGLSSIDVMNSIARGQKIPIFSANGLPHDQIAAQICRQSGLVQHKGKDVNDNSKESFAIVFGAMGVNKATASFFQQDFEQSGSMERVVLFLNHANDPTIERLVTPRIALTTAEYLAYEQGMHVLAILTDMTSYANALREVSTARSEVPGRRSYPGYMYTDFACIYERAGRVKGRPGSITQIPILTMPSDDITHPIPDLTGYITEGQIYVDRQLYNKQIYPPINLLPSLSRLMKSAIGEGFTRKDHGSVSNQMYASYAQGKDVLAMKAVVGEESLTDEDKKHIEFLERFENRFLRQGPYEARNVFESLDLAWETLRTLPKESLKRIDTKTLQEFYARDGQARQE

Target: HA-TvActin (Trichomonas vaginalis) (UniProt P90623)
Experiment: affinity purification with mass spectrometry; HA-TvActin immunoprecipitated with anti-HA agarose beads from lysate of transgenic TH17 trophozoites (1% Triton X-100, 5 mM EDTA in TBS, 4°C overnight); SDS-PAGE, LC-MS/MS, label-free emPAI

binding, binds:
Dynein heavy chain family protein (TVAG_006480) (from UniProt A2E755 1-4660)
Dynein heavy chain family protein (TVAG_497260) (from UniProt A2EGW8 1-4493)
Pyruvate:ferredoxin oxidoreductase A (from UniProt Q27088) (enzyme)
Actin (fragment) (from UniProt A2GKR2)
Vacuolar proton pump subunit B (from UniProt A2ES57 1-496)

These are yes or no findings as the source states them, for the method shown. In cells and extracts the contact can be indirect. These calls come from enrichment with a bait or labelling near it, and not all partners need be listed.
